In all, about 1,800 compounds went through this assay and fewer than 10 were called active.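 The calls were made as follows: active = inhibition of granule release above a set limit; inactive = the rest.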 This is one part of the list.
Assay: inhibitors of lytic granule exocytosis, flow cytometry, TALL-104 cells, validation set (AID 651664)
Settings: TALL-104 LAMP-1 externalization, at 15.2 µM, stronger effect = higher value, stimulated with thapsigargin and PMA

inhibition, inactive:
O=C(CCc1ccc(S(=O)(=O)N2CCOCC2)cc1)Nc1nccs1 1.5%
CCCCN(CCCC)c1nc(OC)nc(-n2nnc(C(C)=O)c2C)n1 2.6%
Cn1c2c(c(=O)n(C)c1=O)C(c1ccc(O)cc1)Nc1ccccc1O2 (stereo unspecified) 2.7%
Cc1ccc(-c2[nH]c3ccccc3c2C(C[N+](=O)[O-])c2ccco2)cc1 (stereo unspecified) -2%
Cc1ccsc1C(=O)OCC(=O)NCc1ccc2c(c1)OCO2 -2.5%
COc1ccc(-c2cc(-c3ccccc3O)[nH]n2)cc1 -2%
CCN(CC)CCOC(=O)c1c(C)n(C)c2ccc(OC)cc12 -2.4%
CCOC(=O)Cc1csc(SCn2nnc3ccccc3c2=O)n1 -2.1%
COc1ccc2nc(NC(=O)CN3CCN(C)CC3)sc2c1 2.4%
COc1ccccc1-n1cnc(N)c1C(C)=O -1.8%
Cc1onc(-c2ccccc2)c1C(=O)Nc1c(C)n(C)n(-c2ccccc2)c1=O 2.2%
Cc1cc2nc(SCCN3CCOCC3)[nH]c2cc1C -2.5%
Clc1ccc(CON/C=N/c2ncnc3sccc23)cc1 -1.5%
O=C(Cc1ccc(Cl)cc1)Nc1ccccc1N1CCOCC1 -1.1%
C=CCn1cc(-c2ccccc2)cc(C#N)c1=O -1%
O=C(O)CNC(=O)c1ccccc1F 0.3%
Cn1c(CN2CCCC2)nc2cc(NS(=O)(=O)c3ccc(Cl)cc3)ccc21 -3.8%
Cn1c(OCc2ccco2)nc2c1c(=O)n(Cc1ccc(Cl)c(Cl)c1)c(=O)n2C -1.3%
COc1cc(CNCCc2ccccc2)ccc1OCC(=O)NC(C)(C)C -3%
Cc1cccc(CS(=O)(=O)Cc2ccc(C(=O)NCCN3CCCCC3C)o2)c1 (stereo unspecified) -3.7%
CC(=O)NC1C(=O)Nc2c(C)cc(C)cc21 (stereo unspecified) -0.4%
Cc1ccccc1-n1nnc2c(=O)oc3ccccc3c21 1.6%
COC(=O)C1=C(N)Oc2cc(C)n(Cc3ccco3)c(=O)c2C1c1cccc(Cl)c1 (stereo unspecified) -1.7%
CCOc1ccc(N=C2NC(=O)S/C2=C\c2ccc(O)cc2)cc1 -1%
CCOC(=O)c1ccc(N2C(=O)CC(C3CCCO3)C2=O)cc1 (stereo unspecified) 3.6%
OC(C#Cc1ccccn1)c1cccs1 (stereo unspecified) -1%
CC(=O)Nc1cccc(Oc2ccc3c(c2)C(=O)N(CCC(=O)O)C3=O)c1 0.5%
CCOC(=O)c1ccc(NC(=O)C2(c3ccccc3)CCOCC2)cc1 -4%
CCCc1ccc(C(C)NC(=O)c2cnccn2)cc1 (stereo unspecified) 2.4%
C/C(=C1/SC(=S)N(CCC(=O)O)C1=O)c1ccc(O)cc1 5.2%
CCn1c(=O)c2c3c(sc2n2c(=S)[nH]nc12)CCC3 1%
COc1cccc2[nH]c3c(=O)n(CCN(C)C)cnc3c12 -1.4%
Cc1nc(SCC(=O)Nc2ccc(N3CCOCC3)cc2)nc(C)c1C 4.1%
COc1cccc(C(C(=O)NC2CCCC2)N(Cc2ccccc2OC)C(=O)c2ccco2)c1 (stereo unspecified) -0.5%
Cc1c(OCc2ccccc2)c(=O)ccn1Cc1ccc(Cl)cc1 -0.7%
COc1ccc(NC(=O)c2ccccc2NC(=O)CSc2ccc(Cl)cc2)cc1 1%
O=C(NCCCN1CCN(c2ccccc2F)CC1)C1CCN(S(=O)(=O)N2CCOCC2)CC1 -0.9%
CCCCN(N=Nc1nonc1OC)c1nonc1OC -2.9%
COc1ccc(/C(O)=C2/C(=O)C(=O)N(CCN(C)C)C2c2ccc(OC)c(OC)c2)c(C)c1 (stereo unspecified) -0.5%
CCOC(=O)c1nn(-c2ccc(Cl)cc2)c2nc(Nc3ccccc3)cc(=O)n12 0.4%
Cc1cccc2cc(COC(=O)COc3ccccc3)c(=O)[nH]c12 -1.6%
Cc1sc(NC(=O)c2ccco2)nc1-c1ccccc1 2.7%
CCOC(=O)C1CCCN(Cc2nc(N)nc(Nc3ccccc3)n2)C1 (stereo unspecified) -2.8%
c1coc(-c2nc3nc4ccccc4n3nc2-c2ccco2)c1 1%
C=CCn1c(SC(C)C(=O)NCCC2=CCCCC2)nc2ccccc2c1=O (stereo unspecified) 2.9%
CCCCOCCCNC(=O)N[C@H](C(=O)OC)C(C)C -2.9%
Cc1ccc(C2C(C#N)=C(N)Oc3nc(-c4ccccc4)[nH]c32)o1 (stereo unspecified) -0.3%
O=C(NNC(=S)NCc1ccco1)c1ccc(Cl)s1 1.1%
Cc1ccccc1NC(=S)NN1CCN(C)CC1 1.1%
CC(C)C[C@H](NC(=O)NCCc1ccc(Cl)cc1)C(=O)O -1.5%
COc1ccc(CCNc2cc(-c3ccccc3)nc3ncnn23)cc1 -2.4%
COc1ccccc1NC(=O)c1c(C)oc2c1CCCC2 -2%
O=C(Nc1cc(Cl)ccc1Oc1ccccc1)c1cnccn1 1.1%
Cc1ccc(C(=O)NC(=S)Nc2ccccc2C(F)(F)F)cc1C -2.7%
CCOC(=O)c1[nH]c(C)c(C(=O)N2CCc3ccccc32)c1C 0.1%
COC(=O)c1nn(-c2ccccc2)c(Cl)c1/C=N/OC(=O)c1ccc(Cl)c(Cl)c1 -2.3%
O=C(Cn1cccc1C(=O)c1ccccc1)NCCN1CCCCCC1 -1.8%
CCCC(=O)Nc1cccc2c1CCCC2 0%
COc1ccc(C(NC(=O)c2ccc(-c3ccccc3)cc2)c2ccccc2)cc1 (stereo unspecified) -2.8%
CCCC1C(c2ccccc2)C(C#N)(C#N)C2(C#N)CC1(N)NC2=O (stereo unspecified) 0.6%
Cn1nnc(NC(=O)c2ccc3ccccc3c2)n1 -1.6%
Nn1c(-c2cccs2)nc2sc3c(c2c1=O)CCCC3 -2.9%
CC1CN(Cc2ccc(Cl)cc2Cl)CC(C)O1 (stereo unspecified) -2.2%
CCN(CC)c1ccc(CC(=O)NC(C)Cc2ccccc2)cc1 (stereo unspecified) -1%
O=C(NC(=S)Nc1ccc(N2CCCCC2)c(Cl)c1)c1cccs1 0.9%
CCc1nc(NCC2CCCO2)c2oc3ccccc3c2n1 (stereo unspecified) -1.9%
O=C(CSc1nc2ccccc2[nH]1)N1CCN(c2ccc(F)cc2)CC1 5.2%
Cc1c(NC(=O)N(C)C)c(=O)n(-c2ccccc2)n1C 0.9%
CCCS(=O)(=O)N1CCC(C(=O)NCCCOC(C)C)CC1 3%
O=C(O)COCCN1CCN(C(c2ccccc2)c2ccc(Cl)cc2)CC1 (stereo unspecified) 0.5%
Cc1nn(C)cc1CNC(=O)CCC(=O)O 5.3%
CCCn1c(N)c(C(=O)CSc2nnnn2-c2ccc(O)cc2)c(=O)n(C)c1=O 1.8%
CC1CN=C(NC2CCCCC2C)S1 (stereo unspecified) 3.8%
O=C(NCc1ccccc1)NC1(C(=O)N2CCN3CCCC3C2)CCCCC1 (stereo unspecified) 2.3%
c1ccc2c(c1)[nH]c1c(NCC3CCCO3)ncnc12 (stereo unspecified) 0.1%
CCOC(=O)C1CCN(C(=O)CN(c2cc(OC)ccc2OC)S(=O)(=O)c2ccccc2)CC1 -2.6%
CCCOC(=O)c1ccc(NC(=O)C2C3C=CC(O3)C2C(=O)O)cc1 (stereo unspecified) 5.5%
Cc1nn(-c2ccccc2)c(C)c1C(=O)OCC(=O)N1c2ccccc2NC(=O)C1(C)C -1%
COc1ccc(NC(=O)c2cccc(S(=O)(=O)N3CCOCC3)c2)cn1 1.5%
O=C(c1ccc(Cl)cc1)c1c[nH]c(C(=O)C(Cl)(Cl)Cl)c1 5.7%
COC(=O)c1ccc(/C=C(\C#N)c2nc3ccccc3s2)cc1 -0.9%
Cc1ccc(C(=O)Nc2cccnc2)cc1NC(=O)c1ccco1 2.5%
COc1ccc(/C=C/c2nc3sc4c(c3c(=O)o2)CCC4)cc1 -1.7%
CCOC(=O)c1c(C(C)(C)C)oc2ccc(O)cc12 1.3%
Cc1cccc2nc(C(F)(F)F)nc(=O)n12 1.8%
Nc1nc(-c2ccco2)nn1C(=O)c1ccccc1 2.6%
CCS(=O)(=O)N1CCCC(C(=O)NC2CCCCC2C)C1 (stereo unspecified) 0.3%
O=C(Oc1ccccc1)N1CCN(c2ccc(F)cc2)CC1 6.6%
COCc1nnc(SCC(=O)Nc2cccc(Cl)c2C)n1-c1ccccc1 -0.4%
Cn1c(Sc2ccc(Br)cc2)c(C=O)c2ccccc21 -0.4%
O=C1c2cccc3cccc(c23)C(=O)N1OS(=O)(=O)c1ccccc1 2.1%
Cn1ccnc1SCC(=O)Nc1ccc(Oc2ccccc2)cc1 -4.5%
Cc1ccc(Sc2ccc(/C=N/O)cc2[N+](=O)[O-])cc1 -1.1%
CCOc1ccc(NC2=NC(C)(C)N=C(N)N2)cc1 0.8%
O=P(Cc1nnco1)(c1ccccc1)c1ccccc1 -1.1%
O=C1CC(SC(=Nc2ccccc2)Nc2ccccc2)C(=O)N1c1cccc2ccccc12 (stereo unspecified) -0.2%
COCc1ccccc1Cn1cnc2c1c(=O)n(C)c(=O)n2C -1.3%
Cn1c(NCCN2CCOCC2)nc2c1c(=O)n(Cc1cccc(Cl)c1)c(=O)n2C -3.6%
Cc1ccc(CN2C(=O)CCC2C(=O)NCCCN2CCCCC2C)cc1 (stereo unspecified) -1%
Cc1cc(=O)c2cccc(Br)c2[nH]1 2.4%
Cc1cc(NC(=O)COc2ncnc3sc(C)c(C)c23)no1 1.9%

Gathered by group: the entries above with a CF3 group (2)
inhibition, inactive:
Cc1ccc(C(=O)NC(=S)Nc2ccccc2C(F)(F)F)cc1C -2.7%
Cc1cccc2nc(C(F)(F)F)nc(=O)n12 1.8%

Random excerpt: 2 records from the list.
inhibition, inactive:
COc1ccccc1-n1cnc(N)c1C(C)=O -1.8%
COc1ccc(NC(=O)c2cccc(S(=O)(=O)N3CCOCC3)c2)cn1 1.5%

From PubChem BioAssay AID651664 (NMMLSC, 2012)
